Results reported in patent publication US8841077B2, “Biomarkers for amyotrophic lateral sclerosis and methods using the same” (Massachusetts General Hospital, priority 2006, dated 2014).
Where a name gives a salt, the structure may show the parent alone.

Assay: Metabolomic profiling (GC-MS/LC-MS) of CSF samples, ALS subjects vs control subjects (Example 1; Tables 3, 4)
Type: in vivo, human
Settings: CSF; ALS mean as compared to control mean; T-tests of ALS vs. Controls

Compound	% change in ALS
O=C(O)[C@H](O)COP(=O)(O)O [3-phospho-d-glycerate - 9, 3-phospho-d-glycerate]	−3%
O=P(O)(O)OC(CO)CO [glycerol-2-phosphate (Metabolite - 1820) - 35]	19%
NCCCC[C@H](N)C(=O)O [Lysine - 9, Lysine]	17%
O=c1[nH]cnc2nc[nH]c12 [1-7-dihydro-6h-purin-6-one - 35, 1-7-dihydro-6h-purin-6-one]	−13%
NCCO [monoethanolamine- 9, monoethanolamine]	−7%
COc1cc(C(O)C(=O)O)ccc1O (centres unmarked) [4-hydroxy-3-methoxymandelate - 35, 4-hydroxy-3-methoxymandelate]	−6%
NC(=O)N[C@@H](CC(=O)O)C(=O)O [N-carbamoyl-L-aspartate - 35, N-carbamoyl-L-aspartate]	13%
O=c1ccn([C@@H]2O[C@H](CO)[C@@H](O)[C@H]2O)c(=O)[nH]1 [Uridine - 35, Uridine]	−7%
O=c1[nH]c(=O)c2[nH]c(=O)[nH]c2[nH]1 [Uric acid - 35, Uric acid]	22%
NC(CCCCC(=O)O)C(=O)O (centres unmarked) [2-amino-heptanedioic acid - 9, 2-amino-heptanedioic acid]	37%
O=P(O)(O)OC[C@H]1O[C@H](O)[C@H](O)[C@@H]1O [alpha-D-ribose-5-phosphate - 35, alpha-D-ribose-5-phosphate]	−2%
NC(=O)CC[C@H](NC(=O)CC[C@H](N)C(=O)O)C(=O)O [gamma-L-glutamyl-L-glutamine - 35, gamma-L-glutamyl-L-glutamine]	16%
N=C(N)NCCC[C@H](N)C(=O)O [Arginine - 35, Arginine]	7%
CC(=O)Nc1ccc(OS(=O)(=O)O)cc1 [4-acetominophen sulfate]	5%
O=CC(=O)O [Glyoxylate - 9, Glyoxylate]	−4%
Nc1ncnc2c1ncn2C1CC(O)C(CO)O1 (centres unmarked) [2-deoxyadenosine - 35, 2-deoxyadenosine]	10%
CC(O)C(=O)O (centres unmarked) [Lactate (previously: Metabolite - 2694) - 35]	14%
CC(O)C(=O)O (centres unmarked) [Lactate (previously: Metaboiite-3316) - 35]	17%
CC(=O)N[C@@H](CC(=O)O)C(=O)O [n-acetyl-L-aspartic acid]	−9%
OC[C@H]1O[C@@H](n2cnc3c(O)ncnc32)[C@H](O)[C@@H]1O [Inosine - 35, Inosine]	2%

Same assay, conditions: CSF; ALS mean as compared to the control mean

Compound	% change in ALS
CC(O)C(=O)O (centres unmarked) [Metabolite - 2563 retired: lactate - 35]	18%
O=C(O)[C@H](O)COP(=O)(O)O [3-phospho-d-glycerate - 9, 3-phospho-d-glycerate]	−3%
NCCCC[C@H](N)C(=O)O [Lysine - 9, Lysine]	17%
O=c1[nH]cnc2nc[nH]c12 [1-7-dihydro-6h-purin-6-one - 35, 1-7-dihydro-6h-purin-6-one]	−13%
COc1cc(C(O)C(=O)O)ccc1O (centres unmarked) [4-hydroxy-3-methoxymandelate - 35, 4-hydroxy-3-methoxymandelate]	−6%
NC(=O)N[C@@H](CC(=O)O)C(=O)O [N-carbamoyl-L-aspartate - 35, N-carbamoyl-L-aspartate]	13%
C[N+](C)(C)CC(O)CC(=O)[O-] (centres unmarked) [Metabolite - 1336 retired: carnitine - 35]	55%
O=c1ccn([C@@H]2O[C@H](CO)[C@@H](O)[C@H]2O)c(=O)[nH]1 [Uridine - 35, Uridine]	−7%
Oc1nc(O)c2nc(O)[nH]c2n1 [Metabolite - 1910 retired: uric acid - 35]	22%
O=c1[nH]c(=O)c2[nH]c(=O)[nH]c2[nH]1 [Uric acid - 35, Uric acid]	22%
NC(CCCCC(=O)O)C(=O)O (centres unmarked) [2-amino-heptanedioic acid - 9, 2-amino-heptanedioic acid]	37%
O=P(O)(O)OC[C@H]1O[C@H](O)[C@H](O)[C@@H]1O [alpha-D-ribose-5-phosphate - 35, alpha-D-ribose-5-phosphate]	−2%
NC(=O)CC[C@H](NC(=O)CC[C@H](N)C(=O)O)C(=O)O [gamma-L-glutamyl-L-glutamine - 35, gamma-L-glutamyl-L-glutamine]	16%
N=C(N)NCCC[C@H](N)C(=O)O [Arginine - 35, Arginine]	7%
CC(=O)Nc1ccc(OS(=O)(=O)O)cc1 [4-acetominophen sulfate]	5%
O=CC(=O)O [Glyoxylate - 9, Glyoxylate]	−4%
Nc1ncnc2c1ncn2C1CC(O)C(CO)O1 (centres unmarked) [2-deoxyadenosine - 35, 2-deoxyadenosine]	10%
CC(=O)N[C@@H](CC(=O)O)C(=O)O [n-acetyl-L-aspartic acid]	−9%
OC[C@H]1O[C@@H](n2cnc3c(O)ncnc32)[C@H](O)[C@@H]1O [Inosine - 35, Inosine]	2%

Same assay, conditions: CSF; mean in ALS samples as compared to control samples

Compound	Increase (+) or Decrease (−) in ALS
CC(O)C(=O)O (centres unmarked) [Metabolite - 2563 retired: lactate - 35]	+
O=C(O)[C@H](O)COP(=O)(O)O [3-phospho-d-glycerate - 9, 3-phospho-d-glycerate]	−
NCCCC[C@H](N)C(=O)O [Lysine - 9, Lysine]	+
O=c1[nH]cnc2nc[nH]c12 [1-7-dihydro-6h-purin-6-one - 35, 1-7-dihydro-6h-purin-6-one]	−
COc1cc(C(O)C(=O)O)ccc1O (centres unmarked) [4-hydroxy-3-methoxymandelate - 35, 4-hydroxy-3-methoxymandelate]	−
NC(=O)N[C@@H](CC(=O)O)C(=O)O [N-carbamoyl-L-aspartate - 35, N-carbamoyl-L-aspartate]	+
C[N+](C)(C)CC(O)CC(=O)[O-] (centres unmarked) [Metabolite - 1336 retired: carnitine - 35]	+
O=c1ccn([C@@H]2O[C@H](CO)[C@@H](O)[C@H]2O)c(=O)[nH]1 [Uridine - 35, Uridine]	−
Oc1nc(O)c2nc(O)[nH]c2n1 [Metabolite - 1910 retired: uric acid - 35]	+
O=c1[nH]c(=O)c2[nH]c(=O)[nH]c2[nH]1 [Uric acid - 35, Uric acid]	+
NC(CCCCC(=O)O)C(=O)O (centres unmarked) [2-amino-heptanedioic acid - 9, 2-amino-heptanedioic acid]	+
O=P(O)(O)OC[C@H]1O[C@H](O)[C@H](O)[C@@H]1O [alpha-D-ribose-5-phosphate - 35, alpha-D-ribose-5-phosphate]	−
NC(=O)CC[C@H](NC(=O)CC[C@H](N)C(=O)O)C(=O)O [gamma-L-glutamyl-L-glutamine - 35, gamma-L-glutamyl-L-glutamine]	+
N=C(N)NCCC[C@H](N)C(=O)O [Arginine - 35, Arginine]	+
CC(=O)Nc1ccc(OS(=O)(=O)O)cc1 [4-acetominophen sulfate]	+
O=CC(=O)O [Glyoxylate - 9, Glyoxylate]	−
Nc1ncnc2c1ncn2C1CC(O)C(CO)O1 (centres unmarked) [2-deoxyadenosine - 35, 2-deoxyadenosine]	+
CC(=O)N[C@@H](CC(=O)O)C(=O)O [n-acetyl-L-aspartic acid]	−
OC[C@H]1O[C@@H](n2cnc3c(O)ncnc32)[C@H](O)[C@@H]1O [Inosine - 35, Inosine]	+

Same assay, conditions: CSF; mean in ALS samples vs control samples; T-tests

Compound	Increase (+) or Decrease (−) in ALS
O=C(O)[C@H](O)COP(=O)(O)O [3-phospho-d-glycerate - 9, 3-phospho-d-glycerate]	−
O=P(O)(O)OC(CO)CO [glycerol-2-phosphate (Metabolite - 1820) - 35]	+
NCCCC[C@H](N)C(=O)O [Lysine - 9, Lysine]	+
O=c1[nH]cnc2nc[nH]c12 [1-7-dihydro-6h-purin-6-one - 35, 1-7-dihydro-6h-purin-6-one]	−
NCCO [monoethanolamine- 9, monoethanolamine]	−
COc1cc(C(O)C(=O)O)ccc1O (centres unmarked) [4-hydroxy-3-methoxymandelate - 35, 4-hydroxy-3-methoxymandelate]	−
NC(=O)N[C@@H](CC(=O)O)C(=O)O [N-carbamoyl-L-aspartate - 35, N-carbamoyl-L-aspartate]	+
O=c1ccn([C@@H]2O[C@H](CO)[C@@H](O)[C@H]2O)c(=O)[nH]1 [Uridine - 35, Uridine]	−
O=c1[nH]c(=O)c2[nH]c(=O)[nH]c2[nH]1 [Uric acid - 35, Uric acid]	+
NC(CCCCC(=O)O)C(=O)O (centres unmarked) [2-amino-heptanedioic acid - 9, 2-amino-heptanedioic acid]	+
O=P(O)(O)OC[C@H]1O[C@H](O)[C@H](O)[C@@H]1O [alpha-D-ribose-5-phosphate - 35, alpha-D-ribose-5-phosphate]	−
NC(=O)CC[C@H](NC(=O)CC[C@H](N)C(=O)O)C(=O)O [gamma-L-glutamyl-L-glutamine - 35, gamma-L-glutamyl-L-glutamine]	+
N=C(N)NCCC[C@H](N)C(=O)O [Arginine - 35, Arginine]	+
CC(=O)Nc1ccc(OS(=O)(=O)O)cc1 [4-acetominophen sulfate]	+
O=CC(=O)O [Glyoxylate - 9, Glyoxylate]	−
Nc1ncnc2c1ncn2C1CC(O)C(CO)O1 (centres unmarked) [2-deoxyadenosine - 35, 2-deoxyadenosine]	+
CC(O)C(=O)O (centres unmarked) [Lactate (previously: Metabolite - 2694) - 35]	+
CC(O)C(=O)O (centres unmarked) [Lactate (previously: Metaboiite-3316) - 35]	+
CC(=O)N[C@@H](CC(=O)O)C(=O)O [n-acetyl-L-aspartic acid]	−
OC[C@H]1O[C@@H](n2cnc3c(O)ncnc32)[C@H](O)[C@@H]1O [Inosine - 35, Inosine]	+

Same assay, conditions: human, in vivo

Compound	% change in ALS	Increase (+) or Decrease (−) in ALS
N[C@@H](Cc1c[nH]c2ccccc12)C(=O)O [Tryptophan - 35, Tryptophan]	15%	+
